Paper doi:10.1101/291294
No constants are given. Whether binding was seen depends on the method and setting. In cells and extracts the contact can be indirect. Where a sequence is shown, tags or fusion partners need not be part of it.

By UniProt entry, the sequences of proteins in these tests, tags left out.
UniProt P98170: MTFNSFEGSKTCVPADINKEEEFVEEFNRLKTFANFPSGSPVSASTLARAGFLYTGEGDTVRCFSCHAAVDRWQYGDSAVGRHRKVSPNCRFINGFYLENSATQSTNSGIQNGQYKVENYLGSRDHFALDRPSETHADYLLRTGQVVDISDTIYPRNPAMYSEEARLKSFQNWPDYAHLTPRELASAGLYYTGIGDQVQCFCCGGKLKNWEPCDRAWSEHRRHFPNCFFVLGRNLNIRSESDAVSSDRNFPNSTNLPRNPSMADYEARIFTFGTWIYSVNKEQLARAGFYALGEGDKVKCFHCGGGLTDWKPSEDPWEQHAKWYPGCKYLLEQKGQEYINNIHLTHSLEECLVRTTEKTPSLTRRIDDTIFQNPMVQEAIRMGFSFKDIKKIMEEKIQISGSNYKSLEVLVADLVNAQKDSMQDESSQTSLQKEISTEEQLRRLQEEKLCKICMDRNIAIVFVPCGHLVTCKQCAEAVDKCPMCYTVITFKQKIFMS

Biological target: GST-tagged human XIAP (human) (UniProt P98170)
Assay: pull-down

B1: GFP-fusion of VPS16 (protein, UniProt Q9H269 1-839)
chain: MDCYTANWNPLGDSAFYRKYELYSMDWDLKEELRDCLVAAAPYGGPIALLRNPWRKEKAASVRPVLDIYSASGMPLASLLWKSGPVVSLGWSAEEELLCVQEDGAVLVYGLHGDFRRHFSMGNEVLQNRVLDARIFHTEFGSGVAILTGAHRFTLSANVGDLKLRRMPEVPGLQSAPSCWTVLCQDRVAHILLAVGPDLYLLDHAACSAVTPPGLAPGVSSFLQMAVSFTYRHLALFTDTGYIWMGTASLKEKLCEFNCNIRAPPKQMVWCSRPRSKERAVVVAWERRLMVVGDAPESIQFVLDEDSYLVPELDGVRIFSRSTHEFLHEVPAASEEIFKIASMAPGALLLEAQKEYEKESQKADEYLREIQELGQLTQAVQQCIEAAGHEHQPDMQKSLLRAASFGKCFLDRFPPDSFVHMCQDLRVLNAVRDYHIGIPLTYSQYKQLTIQVLLDRLVLRRLYPLAIQICEYLRLPEVQGVSRILAHWACYKVQQKDVSDEDVARAINQKLGDTPGVSYSDIAARAYGCGRTELAIKLLEYEPRSGEQVPLLLKMKRSKLALSKAIESGDTDLVFTVLLHLKNELNRGDFFMTLRNQPMALSLYRQFCKHQELETLKDLYNQDDNHQELGSFHIRASYAAEERIEGRVAALQTAADAFYKAKNEFAAKATEDQMRLLRLQRRLEDELGGQFLDLSLHDTVTTLILGGHNKRAEQLARDFRIPDKRLWWLKLTALADLEDWEELEKFSKSKKSPIGYLPFVEICMKQHNKYEAKKYASRVGPEQKVKALLLVGDVAQAADVAIEHRNEAELSLVLSHCTGATDGATADKIQRARAQAQKK
With B1 the binding was “no binding”.
